Patent publication US5750332A (priority 1995, dated 1998)

Assay: Boc solid-phase peptide synthesis; PAM resin
Settings: whole synthesis, scale 0.5 mmol

Q: With KIKQIINMWQEVGKAMYA as the sequence, how does the crude yield read?
A: approximately 95%

Plain letter strings leave the end groups untold.
